Data taken from patent US20250164508A1, “G-PROTEIN COUPLED RECEPTOR ASSAY” (The Regents of the University of Michigan, priority 2022, published 2025).
No constants are given. Whether binding was seen depends on the method and setting. Some entries that bind do so weakly or less than the wild type.

By UniProt entry, the sequences of proteins in these tests, tags left out.
UniProt P35372: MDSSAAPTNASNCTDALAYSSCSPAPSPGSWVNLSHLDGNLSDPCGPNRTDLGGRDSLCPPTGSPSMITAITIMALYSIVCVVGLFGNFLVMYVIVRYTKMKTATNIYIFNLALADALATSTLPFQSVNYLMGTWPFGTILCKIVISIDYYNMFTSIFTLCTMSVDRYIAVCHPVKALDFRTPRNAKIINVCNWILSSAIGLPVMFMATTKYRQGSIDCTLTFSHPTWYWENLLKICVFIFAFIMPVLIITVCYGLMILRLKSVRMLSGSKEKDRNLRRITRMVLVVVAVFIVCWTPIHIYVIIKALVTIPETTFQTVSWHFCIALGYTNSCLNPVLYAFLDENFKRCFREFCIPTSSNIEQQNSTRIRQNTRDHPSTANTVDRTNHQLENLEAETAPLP

Biological target: MOR-LgBit fusion protein (µ-opioid receptor fused to LgBiT) (UniProt P35372)
Assay: in-solution split NANOLUC complementation, DTT added

binding: binds
B1: Gi peptidomimetic … (peptide)
peptide: VTGYRLFEEILGSKKKFDCVTDCIIKNNLKDSGLF
